Test results: patent US12605351B2, “Method for producing a composition comprising a 3-O-p-coumaroyl ester of tormentic acid from a plant cell culture, applications thereof as antiparasitic agent for the treatment of trypanosomiasis” (LUXEMBOURG INSTITUTE OF SCIENCE AND TECHNOLOGY, priority 2019, dated 2026)
Some results were stated once for a whole list of compounds, not compound by compound.

Tested on: Trypanosoma brucei brucei bloodstream forms (strain 427)
Assay: In vitro antitrypanosomal activity on Tbb BSF
Type: cell-based
Conditions: hit criterion of Pink et al.
Experimental: Antiparasitic activities were evaluated in vitro on Trypanosoma brucei brucei bloodstream forms (strain 427) (Tbb BSF). Tbb BSF were cultured in vitro at 37° C. with 5% CO2 in HMI9 medium containing 10% heat-inactivated fetal bovine serum, […] ([…]) and L-cysteine ([…]).
In vitro tests were performed as previously described by Hoet S. et al. (Planta Med., 2004, 70, 407-413, doi:10.1055/s-2004-818967). Suramine (a commercial anti-trypanosomal drug) and camptothecin were used as positive controls. Stock solutions of compounds to be tested were prepared at a concentration of 10 mg/mL in DMSO. The solutions were further diluted in medium (described in 1.1) to give 0.1 mg/mL stock solutions. Extracts and compounds were tested in eight serial three-fold dilutions (final concentration range: 50-0.02 mg/L) in 96-well microliter plates. All tests were performed at least in duplicate.

## 3β-trans/cis-p-coumaroyl-2α,19α-dihydroxy-urs-12-en-28-oic acid [3-O-cis/trans-p-coumaroyltormentic acid]
  antitrypanosomal activity IC50: ≤ 1 µg/mL
